Measurements published in the supplement of paper PMC12823440, “Inhibitors supercharge kinase turnover through native proteolytic circuits” (Nature, 2025).
Counter-ions that a name gives are not always drawn. The list shows a part of the results. The calls rarely recur for the same compound in another form.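 Kinases were expressed as nanoluciferase fusions in K562 cells and luminescence was read every 4 h between 2 and 18 h as percent of control, DMSO set to 100% and a positive control to 0%. A time point counts as decreased when the signal drops significantly (2 sigma). The hit call is the authors' own, does not follow from the count of time points alone, and its rule is not shown.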

Chains of the proteins cited; added tags and fusions are not shown. Lines headed by an entry give the natural chain unless they say otherwise; changes in a name come on top.
UniProt P50613: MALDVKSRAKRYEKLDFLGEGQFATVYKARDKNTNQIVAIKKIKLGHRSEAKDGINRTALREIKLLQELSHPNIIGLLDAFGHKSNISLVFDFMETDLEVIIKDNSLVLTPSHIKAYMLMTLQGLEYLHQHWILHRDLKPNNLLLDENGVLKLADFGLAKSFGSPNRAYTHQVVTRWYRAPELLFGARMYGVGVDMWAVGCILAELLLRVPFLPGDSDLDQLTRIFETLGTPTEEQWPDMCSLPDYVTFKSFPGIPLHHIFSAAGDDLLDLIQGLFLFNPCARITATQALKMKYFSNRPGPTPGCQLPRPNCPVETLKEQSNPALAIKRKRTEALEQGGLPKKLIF
UniProt P50750, whole entry: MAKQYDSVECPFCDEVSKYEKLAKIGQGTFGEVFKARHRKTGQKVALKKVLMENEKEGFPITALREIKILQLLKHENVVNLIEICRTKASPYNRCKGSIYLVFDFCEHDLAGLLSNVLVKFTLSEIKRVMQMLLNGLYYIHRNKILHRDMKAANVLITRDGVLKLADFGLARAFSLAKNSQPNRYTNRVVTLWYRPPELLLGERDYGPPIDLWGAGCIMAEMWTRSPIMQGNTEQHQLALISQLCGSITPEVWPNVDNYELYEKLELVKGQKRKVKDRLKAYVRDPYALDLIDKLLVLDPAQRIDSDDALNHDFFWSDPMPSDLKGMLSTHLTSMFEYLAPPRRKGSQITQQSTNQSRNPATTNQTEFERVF
UniProt O96017, whole entry: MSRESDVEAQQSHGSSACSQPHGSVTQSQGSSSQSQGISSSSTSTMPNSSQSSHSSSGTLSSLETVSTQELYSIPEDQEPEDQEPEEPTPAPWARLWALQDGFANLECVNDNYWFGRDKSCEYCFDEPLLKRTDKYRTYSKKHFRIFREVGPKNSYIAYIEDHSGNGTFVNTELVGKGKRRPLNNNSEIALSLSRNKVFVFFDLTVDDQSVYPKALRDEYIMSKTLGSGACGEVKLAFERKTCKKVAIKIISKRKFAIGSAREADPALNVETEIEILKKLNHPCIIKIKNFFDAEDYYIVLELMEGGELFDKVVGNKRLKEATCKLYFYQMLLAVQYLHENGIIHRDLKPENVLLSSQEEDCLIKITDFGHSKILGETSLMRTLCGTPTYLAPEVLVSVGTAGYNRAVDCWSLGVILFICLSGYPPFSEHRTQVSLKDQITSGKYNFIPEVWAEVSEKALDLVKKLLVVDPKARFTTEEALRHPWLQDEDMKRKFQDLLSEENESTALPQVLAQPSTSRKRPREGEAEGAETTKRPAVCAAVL
UniProt P07333, whole entry: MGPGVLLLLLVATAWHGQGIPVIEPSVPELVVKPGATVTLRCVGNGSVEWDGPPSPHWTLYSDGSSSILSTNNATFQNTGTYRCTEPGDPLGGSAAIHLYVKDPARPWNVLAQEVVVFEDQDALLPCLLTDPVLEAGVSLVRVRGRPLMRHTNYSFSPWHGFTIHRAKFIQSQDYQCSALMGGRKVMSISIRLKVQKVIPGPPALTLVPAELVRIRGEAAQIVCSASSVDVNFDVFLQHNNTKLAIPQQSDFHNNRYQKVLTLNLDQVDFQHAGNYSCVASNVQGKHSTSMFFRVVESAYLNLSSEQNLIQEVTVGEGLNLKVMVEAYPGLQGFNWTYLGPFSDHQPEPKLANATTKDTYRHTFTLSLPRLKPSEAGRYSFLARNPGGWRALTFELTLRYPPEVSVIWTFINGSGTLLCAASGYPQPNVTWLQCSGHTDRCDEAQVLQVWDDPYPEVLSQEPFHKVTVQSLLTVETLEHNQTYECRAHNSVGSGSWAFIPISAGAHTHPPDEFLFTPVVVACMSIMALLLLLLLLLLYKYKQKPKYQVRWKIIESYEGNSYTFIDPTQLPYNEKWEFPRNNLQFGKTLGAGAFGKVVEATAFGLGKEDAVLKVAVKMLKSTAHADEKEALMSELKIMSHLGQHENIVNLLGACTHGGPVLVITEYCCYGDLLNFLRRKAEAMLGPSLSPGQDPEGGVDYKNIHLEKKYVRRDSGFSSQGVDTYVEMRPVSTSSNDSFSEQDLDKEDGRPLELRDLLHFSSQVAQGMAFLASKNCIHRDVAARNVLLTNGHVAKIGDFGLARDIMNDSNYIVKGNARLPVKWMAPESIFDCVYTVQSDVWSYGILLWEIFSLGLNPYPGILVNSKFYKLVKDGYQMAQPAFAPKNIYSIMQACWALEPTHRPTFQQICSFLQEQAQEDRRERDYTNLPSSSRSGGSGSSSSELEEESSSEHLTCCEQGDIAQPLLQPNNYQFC
UniProt P41240: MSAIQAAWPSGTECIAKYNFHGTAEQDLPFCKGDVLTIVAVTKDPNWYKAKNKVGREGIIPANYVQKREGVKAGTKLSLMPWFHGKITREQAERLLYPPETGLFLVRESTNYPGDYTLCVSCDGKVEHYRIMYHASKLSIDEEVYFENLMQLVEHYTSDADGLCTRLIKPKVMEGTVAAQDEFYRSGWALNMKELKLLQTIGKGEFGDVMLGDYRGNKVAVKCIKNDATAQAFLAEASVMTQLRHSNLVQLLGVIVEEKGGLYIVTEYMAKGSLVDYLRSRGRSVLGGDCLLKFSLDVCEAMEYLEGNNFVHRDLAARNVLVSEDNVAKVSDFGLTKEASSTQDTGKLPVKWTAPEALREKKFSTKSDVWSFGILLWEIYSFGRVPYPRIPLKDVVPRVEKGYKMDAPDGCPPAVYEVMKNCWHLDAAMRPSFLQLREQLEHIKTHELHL
UniProt P48729: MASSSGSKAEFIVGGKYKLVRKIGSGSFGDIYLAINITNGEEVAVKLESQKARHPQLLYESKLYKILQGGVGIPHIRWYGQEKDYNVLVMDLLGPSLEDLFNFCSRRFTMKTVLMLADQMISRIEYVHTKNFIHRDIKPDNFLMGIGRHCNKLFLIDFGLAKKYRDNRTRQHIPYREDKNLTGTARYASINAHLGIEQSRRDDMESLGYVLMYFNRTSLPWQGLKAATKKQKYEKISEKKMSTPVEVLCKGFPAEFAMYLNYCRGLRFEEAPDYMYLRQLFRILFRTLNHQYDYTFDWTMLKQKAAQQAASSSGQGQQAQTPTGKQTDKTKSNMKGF
UniProt P48730: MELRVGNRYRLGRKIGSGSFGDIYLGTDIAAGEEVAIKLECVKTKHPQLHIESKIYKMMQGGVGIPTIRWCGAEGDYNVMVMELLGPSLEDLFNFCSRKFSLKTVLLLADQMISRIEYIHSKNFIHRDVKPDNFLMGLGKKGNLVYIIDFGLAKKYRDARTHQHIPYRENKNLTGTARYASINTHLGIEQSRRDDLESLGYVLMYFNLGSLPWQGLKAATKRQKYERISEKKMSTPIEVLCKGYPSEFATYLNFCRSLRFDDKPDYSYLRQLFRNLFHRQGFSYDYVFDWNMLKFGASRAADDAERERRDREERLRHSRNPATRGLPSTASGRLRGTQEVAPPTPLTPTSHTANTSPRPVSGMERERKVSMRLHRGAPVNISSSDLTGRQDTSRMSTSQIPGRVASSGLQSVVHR
UniProt Q08345: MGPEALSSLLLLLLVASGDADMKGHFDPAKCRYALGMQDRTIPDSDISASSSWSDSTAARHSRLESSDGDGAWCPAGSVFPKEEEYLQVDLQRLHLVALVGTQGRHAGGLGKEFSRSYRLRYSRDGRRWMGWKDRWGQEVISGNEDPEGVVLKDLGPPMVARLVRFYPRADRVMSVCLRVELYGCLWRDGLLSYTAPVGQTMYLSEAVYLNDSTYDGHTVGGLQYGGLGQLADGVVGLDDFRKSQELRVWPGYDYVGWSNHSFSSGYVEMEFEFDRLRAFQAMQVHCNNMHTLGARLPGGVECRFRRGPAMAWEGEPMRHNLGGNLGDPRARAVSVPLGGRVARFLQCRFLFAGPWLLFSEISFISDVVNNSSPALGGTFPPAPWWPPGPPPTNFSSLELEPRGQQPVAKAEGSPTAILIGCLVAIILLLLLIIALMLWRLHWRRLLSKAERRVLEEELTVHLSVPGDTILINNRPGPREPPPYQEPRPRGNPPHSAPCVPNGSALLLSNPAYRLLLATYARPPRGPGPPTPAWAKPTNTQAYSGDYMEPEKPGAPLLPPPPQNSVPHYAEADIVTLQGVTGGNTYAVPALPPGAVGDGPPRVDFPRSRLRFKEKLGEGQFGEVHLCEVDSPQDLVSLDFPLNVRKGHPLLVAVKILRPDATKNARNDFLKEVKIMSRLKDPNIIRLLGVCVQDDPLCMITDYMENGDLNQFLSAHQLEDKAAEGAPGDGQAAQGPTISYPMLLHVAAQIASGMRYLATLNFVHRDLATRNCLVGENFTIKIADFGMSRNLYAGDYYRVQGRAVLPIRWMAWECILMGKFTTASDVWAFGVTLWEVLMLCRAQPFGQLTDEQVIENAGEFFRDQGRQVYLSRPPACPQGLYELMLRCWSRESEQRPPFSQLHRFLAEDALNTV
UniProt Q9Y463, whole entry, looked up: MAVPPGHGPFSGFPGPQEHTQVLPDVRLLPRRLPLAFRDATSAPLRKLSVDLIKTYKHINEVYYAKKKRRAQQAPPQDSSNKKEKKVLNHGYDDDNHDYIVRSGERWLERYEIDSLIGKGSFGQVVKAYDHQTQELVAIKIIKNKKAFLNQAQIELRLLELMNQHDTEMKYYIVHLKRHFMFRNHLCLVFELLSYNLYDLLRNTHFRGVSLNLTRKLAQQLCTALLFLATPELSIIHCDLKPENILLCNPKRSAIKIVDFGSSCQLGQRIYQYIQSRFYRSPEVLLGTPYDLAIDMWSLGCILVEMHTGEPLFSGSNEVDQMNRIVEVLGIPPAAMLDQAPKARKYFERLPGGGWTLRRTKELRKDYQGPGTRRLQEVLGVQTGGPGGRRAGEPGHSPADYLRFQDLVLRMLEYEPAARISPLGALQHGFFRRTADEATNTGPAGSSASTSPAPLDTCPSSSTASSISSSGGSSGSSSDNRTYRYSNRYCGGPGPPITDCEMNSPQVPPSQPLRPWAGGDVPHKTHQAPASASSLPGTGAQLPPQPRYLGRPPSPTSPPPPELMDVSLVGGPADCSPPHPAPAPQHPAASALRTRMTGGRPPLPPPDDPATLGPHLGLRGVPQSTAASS
UniProt Q92630: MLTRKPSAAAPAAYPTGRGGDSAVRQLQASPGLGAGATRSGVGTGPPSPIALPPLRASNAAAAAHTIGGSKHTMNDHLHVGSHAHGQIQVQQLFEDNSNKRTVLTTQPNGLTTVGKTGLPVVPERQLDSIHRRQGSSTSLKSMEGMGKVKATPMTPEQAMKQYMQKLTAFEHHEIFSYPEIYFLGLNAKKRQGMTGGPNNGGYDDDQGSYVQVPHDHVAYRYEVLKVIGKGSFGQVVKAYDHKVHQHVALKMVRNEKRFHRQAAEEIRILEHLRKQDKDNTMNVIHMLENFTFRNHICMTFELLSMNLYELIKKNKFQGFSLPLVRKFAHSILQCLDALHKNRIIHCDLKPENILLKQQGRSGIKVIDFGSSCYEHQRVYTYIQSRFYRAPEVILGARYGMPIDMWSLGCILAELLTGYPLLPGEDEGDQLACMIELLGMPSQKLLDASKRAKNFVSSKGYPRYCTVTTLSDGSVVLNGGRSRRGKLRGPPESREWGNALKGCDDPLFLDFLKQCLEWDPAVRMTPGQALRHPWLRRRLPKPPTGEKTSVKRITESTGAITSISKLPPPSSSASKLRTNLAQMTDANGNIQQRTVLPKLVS

How the values were obtained:
Assay in all cases: kinase-Nluc reporter destabilization hit call (1 = scored as downregulated) (binary); higher = compound decreases kinase abundance
Settings in all cases: K562; 2-18 h
CDK7 = CDK7 (UniProt P50613)
CDK9 = CDK9 (UniProt P50750)
CHEK2 = CHEK2 (UniProt O96017)
CSF1R = CSF1R (UniProt P07333)
CSK = CSK (UniProt P41240)
CSNK1A1 = CSNK1A1 (UniProt P48729)
CSNK1D = CSNK1D (UniProt P48730)
DDR1 = DDR1 (UniProt Q08345)
DYRK1B = DYRK1B (UniProt Q9Y463)
DYRK2 = DYRK2 (UniProt Q92630)

Measured: kinase-Nluc reporter destabilization hit call

NC(=O)c1ccccc1Nc1ccnc(Nc2cccc(O)c2)n1 (10 µM)
inactive: CDK7 = 0 | CDK9 = 0 | CHEK2 = 0 | CSF1R 0 | CSK 0 | CSNK1A1 = 0 | CSNK1D 0 | DDR1 = 0 | DYRK1B 0 | DYRK2 = 0

Cc1nc(Nc2cnn(C3CCNCC3)c2)nc2c1N(C)C(=O)c1cc3ccccc3cc1N2C (2.5 µM)
inactive: CDK7 = 0 | CDK9 = 0 | CHEK2 = 0 | CSF1R 0 | CSK 0 | CSNK1A1 = 0 | CSNK1D 0 | DDR1 = 0 | DYRK1B 0 | DYRK2 = 0

COCCNc1cc(NC(=O)N2CCCc3cc(CN4CCOCC4=O)c(C=O)nc32)ncc1C#N (10 µM)
inactive: CDK7 = 0 | CDK9 = 0 | CHEK2 = 0 | CSF1R 0 | CSK 0 | CSNK1A1 = 0 | CSNK1D 0 | DDR1 = 0 | DYRK1B 0 | DYRK2 = 0

NCCNS(=O)(=O)c1ccc(Cl)c2ccncc12 [CKI-7 (free base)] (10 µM)
inactive: CDK7 = 0 | CDK9 = 0 | CHEK2 = 0 | CSF1R 0 | CSK 0 | CSNK1A1 = 0 | CSNK1D 0 | DDR1 = 0 | DYRK1B 0 | DYRK2 = 0

COc1cc(N2CCC(N3CCN(C)CC3)CC2)ccc1Nc1ncnc(Nc2ccccc2S(=O)(=O)C(C)C)n1 (10 µM)
inactive: CDK7 = 0 | CDK9 = 0 | CHEK2 = 0 | CSF1R 0 | CSK 0 | CSNK1A1 = 0 | CSNK1D 0 | DDR1 = 0 | DYRK1B 0 | DYRK2 = 0

CS[C@@]1(C(=O)Nc2ccc3[nH]nc(-c4ccc(OC(C)C)nc4)c3c2)CCN(CC(=O)N2CC=C(c3ccc(-c4ncn(C)n4)cc3)CC2)C1 (2.5 µM)
inactive: CDK7 = 0 | CDK9 = 0 | CHEK2 = 0 | CSF1R 0 | CSK 0 | CSNK1A1 = 0 | CSNK1D 0 | DDR1 = 0 | DYRK1B 0 | DYRK2 = 0

2 neighbouring records already listed:
NCCNS(=O)(=O)c1ccc(Cl)c2ccncc12 [CKI-7 (free base)] (10 µM)
inactive: CDK7 = 0 | CDK9 = 0 | CHEK2 = 0 | CSF1R 0 | CSK 0 | CSNK1A1 = 0 | CSNK1D 0 | DDR1 = 0 | DYRK1B 0 | DYRK2 = 0

COc1cc(N2CCC(N3CCN(C)CC3)CC2)ccc1Nc1ncnc(Nc2ccccc2S(=O)(=O)C(C)C)n1 (10 µM)
inactive: CDK7 = 0 | CDK9 = 0 | CHEK2 = 0 | CSF1R 0 | CSK 0 | CSNK1A1 = 0 | CSNK1D 0 | DDR1 = 0 | DYRK1B 0 | DYRK2 = 0

The listing continues.

CCNC(=O)Nc1ccc(-c2nc3c(c(N4CCOC[C@@H]4C)n2)CCN(C2COC2)C3)cc1 (2.5 µM)
inactive: CDK7 = 0 | CDK9 = 0 | CHEK2 = 0 | CSF1R 0 | CSK 0 | CSNK1A1 = 0 | CSNK1D 0 | DYRK1B 0 | DYRK2 = 0
active: DDR1 = 1

O=C(Nc1ccccc1C(=O)NC1CCCCNC1=O)c1cc2ccccc2s1 (stereo not given) (10 µM)
inactive: CDK7 = 0 | CDK9 = 0 | CHEK2 = 0 | CSF1R 0 | CSK 0 | CSNK1A1 = 0 | CSNK1D 0 | DDR1 = 0 | DYRK1B 0 | DYRK2 = 0

O=C(NCc1ccn[nH]1)c1cc([C@@H]2CCNC[C@H]2COc2ccc3c(c2)OCO3)ccc1F [GRK2-IN-1 (hydrochloride)] (10 µM)
inactive: CDK7 = 0 | CDK9 = 0 | CHEK2 = 0 | CSF1R 0 | CSK 0 | CSNK1A1 = 0 | CSNK1D 0 | DDR1 = 0 | DYRK1B 0 | DYRK2 = 0

O=C(CCl)c1c[nH]c2ccccc12 (2.5 µM)
inactive: CDK7 = 0 | CDK9 = 0 | CHEK2 = 0 | CSF1R 0 | CSK 0 | CSNK1A1 = 0 | CSNK1D 0 | DDR1 = 0 | DYRK1B 0 | DYRK2 = 0

COc1ccc(Cl)cc1N(CC(=O)Nc1ccc2c(c1)OCO2)S(=O)(=O)c1ccccc1 (2.5 µM)
inactive: CDK7 = 0 | CDK9 = 0 | CHEK2 = 0 | CSF1R 0 | CSK 0 | CSNK1A1 = 0 | CSNK1D 0 | DDR1 = 0 | DYRK1B 0 | DYRK2 = 0

COCCOc1cnc2ccn([C@H](C)c3nnc4c(F)cc(-c5cnn(C)c5)cn34)c(=O)c2c1 (10 µM)
inactive: CDK7 = 0 | CDK9 = 0 | CHEK2 = 0 | CSF1R 0 | CSK 0 | CSNK1A1 = 0 | CSNK1D 0 | DDR1 = 0 | DYRK1B 0 | DYRK2 = 0

S=C(NCc1ccc2c(c1)OCO2)N1CCN(c2ncnc3c2oc2ccccc23)CC1 [Amuvatinib] (2.5 µM)
inactive: CDK7 = 0 | CDK9 = 0 | CHEK2 = 0 | CSF1R 0 | CSK 0 | CSNK1A1 = 0 | CSNK1D 0 | DDR1 = 0 | DYRK1B 0 | DYRK2 = 0

N#Cc1cc(N2CCC(C(=O)N3N=CC[C@H]3c3cc(F)cc(F)c3)CC2)ncn1 (10 µM)
inactive: CDK7 = 0 | CDK9 = 0 | CHEK2 = 0 | CSF1R 0 | CSK 0 | CSNK1A1 = 0 | CSNK1D 0 | DDR1 = 0 | DYRK1B 0 | DYRK2 = 0

Cn1c(N2CCO[C@@H](c3ccc(F)cc3)C2)nc(-c2ccncn2)cc1=O (10 µM)
inactive: CDK7 = 0 | CDK9 = 0 | CHEK2 = 0 | CSF1R 0 | CSK 0 | CSNK1A1 = 0 | CSNK1D 0 | DDR1 = 0 | DYRK1B 0 | DYRK2 = 0

Nc1ccc(C(=O)Nc2cccc(-c3nc(N4CCOCC4)c4oc5ncccc5c4n3)c2)cn1 (10 µM)
active: DYRK2 = 1
inactive: CDK7 = 0 | CDK9 = 0 | CHEK2 = 0 | CSF1R 0 | CSK 0 | CSNK1A1 = 0 | CSNK1D 0 | DDR1 = 0 | DYRK1B 0

Nc1nc(Nc2ccc3c(c2)CC[C@@H](N2CCCC2)CC3)nn1-c1cc2c(nn1)-c1ccccc1CCC2 [Bemcentinib] (2.5 µM)
inactive: CDK7 = 0 | CDK9 = 0 | CHEK2 = 0 | CSF1R 0 | CSK 0 | CSNK1A1 = 0 | CSNK1D 0 | DDR1 = 0 | DYRK1B 0 | DYRK2 = 0

CN(C[C@@H]1COCCO1)S(=O)(=O)Nc1ccc2ccc3ncc(-c4cnn(C)c4)cc3c(=O)c2c1 (2.5 µM)
inactive: CDK7 = 0 | CDK9 = 0 | CHEK2 = 0 | CSF1R 0 | CSK 0 | CSNK1A1 = 0 | CSNK1D 0 | DDR1 = 0 | DYRK1B 0 | DYRK2 = 0

CO[C@]1(C(=O)N[C@@H](C)c2ccc(-n3cc(F)cn3)nc2)CC[C@H](c2nc(C)cc(Nc3cc(C)[nH]n3)n2)CC1 [Pralsetinib] (10 µM)
inactive: CDK7 = 0 | CDK9 = 0 | CHEK2 = 0 | CSF1R 0 | CSK 0 | CSNK1A1 = 0 | CSNK1D 0 | DYRK1B 0 | DYRK2 = 0
active: DDR1 = 1

CN(C)CCOc1cc(-c2cn[nH]c2)ccc1NC(=O)C1COc2ccccc2O1 (stereo not given) (10 µM)
inactive: CDK7 = 0 | CDK9 = 0 | CHEK2 = 0 | CSF1R 0 | CSK 0 | CSNK1A1 = 0 | CSNK1D 0 | DDR1 = 0 | DYRK1B 0 | DYRK2 = 0

N#C/C(=C/c1ccc(O)c(O)c1)C(=O)N1CCc2ccccc21 [Tyrphostin AG 528] (10 µM)
inactive: CDK7 = 0 | CDK9 = 0 | CHEK2 = 0 | CSF1R 0 | CSK 0 | CSNK1A1 = 0 | CSNK1D 0 | DDR1 = 0 | DYRK1B 0 | DYRK2 = 0

CN1CCC(Nc2ccc(C(=O)Nc3cc(-c4ccc5c(c4)OCO5)[nH]n3)cc2)CC1 (10 µM)
inactive: CDK7 = 0 | CDK9 = 0 | CHEK2 = 0 | CSF1R 0 | CSK 0 | CSNK1A1 = 0 | CSNK1D 0 | DDR1 = 0 | DYRK1B 0 | DYRK2 = 0

C[C@H](Nc1cc2c(-c3ccc4c(c3)OCO4)noc2cn1)c1ccccc1 (10 µM)
inactive: CDK7 = 0 | CDK9 = 0 | CHEK2 = 0 | CSF1R 0 | CSK 0 | CSNK1A1 = 0 | CSNK1D 0 | DDR1 = 0 | DYRK1B 0 | DYRK2 = 0

CN(C)CCn1cc2cc(NC(=O)c3cccc(C(F)(F)F)n3)c(C(C)(C)O)cc2n1 (10 µM)
inactive: CDK7 = 0 | CDK9 = 0 | CHEK2 = 0 | CSF1R 0 | CSK 0 | CSNK1A1 = 0 | CSNK1D 0 | DDR1 = 0 | DYRK1B 0 | DYRK2 = 0

CNCc1cc(Oc2ccc3c(ccn3C(=O)Nc3cc(C(F)(F)F)n(C)n3)c2)ncn1 [Acrizanib] (10 µM)
inactive: CDK7 = 0 | CDK9 = 0 | CHEK2 = 0 | CSF1R 0 | CSK 0 | CSNK1A1 = 0 | CSNK1D 0 | DDR1 = 0 | DYRK1B 0 | DYRK2 = 0

CC1(C)CN(C(=O)c2ccc(-c3cccc4nc(NC(=O)C5CC5)nn34)cc2)C1 [Solcitinib] (10 µM)
inactive: CDK7 = 0 | CDK9 = 0 | CHEK2 = 0 | CSF1R 0 | CSK 0 | CSNK1A1 = 0 | CSNK1D 0 | DDR1 = 0 | DYRK1B 0 | DYRK2 = 0

N#Cc1cc(-c2ccnc(Nc3ccc(N4CCOCC4)cc3)n2)ccc1OC1CCOCC1 (10 µM)
inactive: CDK7 = 0 | CDK9 = 0 | CHEK2 = 0 | CSF1R 0 | CSK 0 | CSNK1A1 = 0 | CSNK1D 0 | DDR1 = 0 | DYRK1B 0 | DYRK2 = 0
